From patent publication US9597416B2, “Fluorescent membrane intercalating probes and methods for their use” (PHANOS TECHNOLOGIES, INC., priority 2005, dated 2017)

System: U937 cells
Test: Dye dilution / mean fluorescence intensity monitoring of labeled cells by flow cytometry
Format: cell-based
[1] = 488 nm excitation for PKH26, 405 nm for F305B, 633 nm for F308B

Row | SMILES | signal:noise ratio at T0 relative to PKH26 [1] | signal:noise ratio at T0 relative to PKH26 (FACSAria, 785 nm excitation for F319B, 488 nm for PKH26)
1 | CCCCCCCCCCCCCCCCCCCCCC[N+]1=C(/C=C/C=C/C=C2/N(CCCCCCCCCCCCCC)c3ccc([N+](=O)[O-])cc3C2(C)C)C(C)(C)c2ccccc21.[I-] [Compound F308B] | greater | 
2 | CCCCCCCCCCCCCCCCCCCCCC[n+]1c(/C=C2\Sc3ccccc3N2CCCCCCCCCCCCCC)sc2ccccc21.[I-] [Compound F305B] | lower | 
3 | CCCCCCCCCCCCCCCCCCCCCC[N+]1=C(/C=C/C=C/C=C/C=C2/N(CCCCCCCCCCCCCC)c3ccc([N+](=O)[O-])cc3C2(C)C)C(C)(C)c2ccccc21.[I-] [Compound F319B] |  | approx 5 ×
